Test results as given in doi:10.1101/354233.
These are yes or no findings as the source states them, for the method shown. Binding seen in cells or lysates may run through a third protein. Some results given as binding are weak or reduced against the parent protein; the word gives no strength. Where a sequence is shown, tags or fusion partners need not be part of it.

Protein sequences, listed by entry. Tags and fused reporters are not part of them.
UniProt O00506: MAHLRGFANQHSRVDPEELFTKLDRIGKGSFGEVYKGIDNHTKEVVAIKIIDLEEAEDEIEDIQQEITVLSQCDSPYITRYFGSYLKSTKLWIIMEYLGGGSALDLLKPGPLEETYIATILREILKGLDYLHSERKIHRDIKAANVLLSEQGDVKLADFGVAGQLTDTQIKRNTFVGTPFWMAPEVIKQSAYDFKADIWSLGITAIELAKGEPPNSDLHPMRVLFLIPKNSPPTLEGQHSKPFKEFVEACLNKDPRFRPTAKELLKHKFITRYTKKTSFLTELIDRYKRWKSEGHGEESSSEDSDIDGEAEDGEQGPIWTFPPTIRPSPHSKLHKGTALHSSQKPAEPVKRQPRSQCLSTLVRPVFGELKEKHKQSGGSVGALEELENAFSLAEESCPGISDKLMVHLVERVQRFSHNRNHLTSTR

Tests used:
HA-tagged LATS2 = biological target: T1, HA-tagged LATS2 (UniProt Q9NRM7); assay: co-IP
T1 sequence: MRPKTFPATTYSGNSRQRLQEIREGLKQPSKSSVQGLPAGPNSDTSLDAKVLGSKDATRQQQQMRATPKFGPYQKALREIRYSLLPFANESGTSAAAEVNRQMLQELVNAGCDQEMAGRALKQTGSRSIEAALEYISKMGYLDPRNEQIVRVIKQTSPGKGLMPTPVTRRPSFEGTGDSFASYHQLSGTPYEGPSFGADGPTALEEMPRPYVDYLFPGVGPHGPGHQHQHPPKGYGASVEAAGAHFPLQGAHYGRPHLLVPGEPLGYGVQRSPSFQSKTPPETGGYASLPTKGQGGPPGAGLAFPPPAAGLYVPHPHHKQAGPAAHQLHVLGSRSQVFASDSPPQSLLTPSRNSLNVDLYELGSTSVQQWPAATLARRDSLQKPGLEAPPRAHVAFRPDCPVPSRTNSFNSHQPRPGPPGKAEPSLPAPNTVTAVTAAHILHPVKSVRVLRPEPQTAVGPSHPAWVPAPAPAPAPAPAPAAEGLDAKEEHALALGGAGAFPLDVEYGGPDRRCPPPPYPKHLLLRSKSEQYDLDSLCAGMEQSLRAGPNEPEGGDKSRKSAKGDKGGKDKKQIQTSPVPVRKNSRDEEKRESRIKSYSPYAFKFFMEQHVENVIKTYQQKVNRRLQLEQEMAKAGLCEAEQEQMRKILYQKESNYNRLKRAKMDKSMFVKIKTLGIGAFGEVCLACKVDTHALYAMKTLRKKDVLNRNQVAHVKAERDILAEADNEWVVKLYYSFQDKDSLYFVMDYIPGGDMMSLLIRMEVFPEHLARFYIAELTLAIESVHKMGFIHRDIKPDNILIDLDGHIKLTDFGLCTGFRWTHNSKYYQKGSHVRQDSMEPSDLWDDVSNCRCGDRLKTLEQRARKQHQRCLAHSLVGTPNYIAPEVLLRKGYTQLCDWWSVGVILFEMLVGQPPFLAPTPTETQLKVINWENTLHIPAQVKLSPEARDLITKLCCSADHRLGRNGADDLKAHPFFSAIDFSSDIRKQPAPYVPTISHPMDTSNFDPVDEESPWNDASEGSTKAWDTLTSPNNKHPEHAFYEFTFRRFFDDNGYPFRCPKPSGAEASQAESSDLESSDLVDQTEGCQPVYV

Myc-tagged LATS1 = biological target: T2, Myc-tagged LATS1 (UniProt O95835); assay: co-IP
T2 sequence: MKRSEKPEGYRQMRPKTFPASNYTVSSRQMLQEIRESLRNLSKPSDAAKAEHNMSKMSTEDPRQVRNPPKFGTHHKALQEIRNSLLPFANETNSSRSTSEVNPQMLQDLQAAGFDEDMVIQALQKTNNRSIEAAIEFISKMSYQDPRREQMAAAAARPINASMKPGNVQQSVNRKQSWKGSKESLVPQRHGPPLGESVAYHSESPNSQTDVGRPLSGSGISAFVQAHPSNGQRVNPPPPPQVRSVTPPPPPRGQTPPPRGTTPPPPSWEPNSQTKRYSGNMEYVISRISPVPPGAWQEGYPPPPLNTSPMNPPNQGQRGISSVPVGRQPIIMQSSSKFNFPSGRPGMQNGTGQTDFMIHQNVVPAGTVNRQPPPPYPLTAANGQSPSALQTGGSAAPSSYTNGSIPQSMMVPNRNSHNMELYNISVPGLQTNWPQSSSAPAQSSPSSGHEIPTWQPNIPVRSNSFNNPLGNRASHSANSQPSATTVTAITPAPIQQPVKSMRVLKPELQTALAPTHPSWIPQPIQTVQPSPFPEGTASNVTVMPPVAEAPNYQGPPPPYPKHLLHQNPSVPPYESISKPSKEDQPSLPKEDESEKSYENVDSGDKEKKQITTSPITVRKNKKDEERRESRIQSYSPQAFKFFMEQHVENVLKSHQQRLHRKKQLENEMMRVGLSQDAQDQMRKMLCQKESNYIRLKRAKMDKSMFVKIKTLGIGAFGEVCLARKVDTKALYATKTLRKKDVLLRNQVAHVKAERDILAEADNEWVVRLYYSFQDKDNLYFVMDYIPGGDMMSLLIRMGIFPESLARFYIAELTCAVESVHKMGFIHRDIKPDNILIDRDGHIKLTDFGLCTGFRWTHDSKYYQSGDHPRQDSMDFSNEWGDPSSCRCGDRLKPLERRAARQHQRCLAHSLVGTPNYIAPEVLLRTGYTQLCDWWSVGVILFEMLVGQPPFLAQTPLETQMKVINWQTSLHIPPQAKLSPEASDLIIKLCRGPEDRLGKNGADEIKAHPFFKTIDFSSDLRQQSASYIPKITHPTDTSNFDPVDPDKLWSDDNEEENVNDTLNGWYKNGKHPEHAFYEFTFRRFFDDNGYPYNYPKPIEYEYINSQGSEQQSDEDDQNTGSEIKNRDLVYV

binding (HA-tagged LATS2)	binding (Myc-tagged LATS1)	Substance
binds	binds	endogenous STK25 (from UniProt O00506 1-426) (enzyme)
binds		FLAG-tagged STK25 (from UniProt O00506 1-426) (enzyme)
